Source: PubChem BioAssay AID1347131 (National Center for Advancing Translational Sciences (NCATS), 2019)
The campaign covered roughly 410,000 compounds. About 2,000 (0.49%) were called active. The inconclusive results got no clear call from the source; some entries with a clear call stand among them for comparison. The call rests on the fitted dose curve; tested in HEK293 reporter line. Potencies of inconclusive entries are doubtful fits and often do not repeat.

Assay: qHTS Assay for Foot and Mouth Disease Virus Antivirals: Primary Screen against the MLPCN compound library; further: nearly all actives have a fitted effect of over 55% in size
Conditions: FMDV antiviral cell-based qHTS; series mostly up to 57.9 µM
Potency means the concentration at half of the fitted maximal effect.

Structure (SMILES)	Potency
c1ccc(CC2CCN(c3nc4ccccc4n4cnnc34)CC2)cc1	inconclusive: 14.1 µM [inhibitor, partial curve, poor fit]
CCN1/C(=C/C(C)=C/c2sc3ccccc3[n+]2CC)Sc2ccccc21	inconclusive: 12.6 µM [inhibitor, partial curve, poor fit]
COc1cc(/C=C2\SC(=S)N(CCC(=O)Nc3cccc(O)c3)C2=O)cc(OC)c1OC	inconclusive: 20 µM [inhibitor, partial curve, poor fit]
Cc1cc(/C=N/NC(=O)c2cccc(F)c2)c(C)n1-c1ccccc1	inconclusive: 15.8 µM [inhibitor, single point]
COc1cccc(-c2nc(N3CCC(C)CC3)c3ccccc3n2)c1O	inconclusive: 15.8 µM [inhibitor, partial curve, poor fit]
CCN1C(=O)/C(=C/N(C(C)=O)c2ccccc2)N(c2ccccc2)C1=S	inconclusive: 31.6 µM [inhibitor, single point]
CC(C)C(=O)N1c2ncnn2C2(CCCCC2)[C@@H]2CCCC[C@@H]21	inconclusive: 15.8 µM [inhibitor, partial curve, poor fit]
COc1ccc(C(=O)N=c2nc3ccccn3s2)cc1	inconclusive: 12.6 µM [inhibitor, partial curve, poor fit]
Cc1c(C(=O)Nc2cccc(C(F)(F)F)c2)sc2nc3n(c(=O)c12)CCCC3	inconclusive: 17.8 µM [inhibitor, partial curve, poor fit]
CCN(CC)CCCNC(=O)CSc1c2c(nc3cc(Cl)ccc13)CCCC2	inconclusive: 31.6 µM [inhibitor, partial curve, poor fit]
Oc1ccc(Cl)cc1CNc1ccc(Br)cn1	inconclusive: 39.8 µM [inhibitor, single point]
Oc1ccc(/C=C/c2ccc3ccccc3n2)cc1	inconclusive: 11.2 µM [inhibitor, partial curve, poor fit]
COc1ccc(C=C(C(C)=O)C(C)=O)cc1OC	inconclusive: 28.2 µM [inhibitor, partial curve, poor fit]
CC(C)(C)OC(=O)NCCCCCNC(=O)c1[nH]cnc1C(=O)Nc1ccc(Cl)cc1	inconclusive: 31.6 µM [inhibitor, partial curve, poor fit]
CCS(=O)(=O)c1ncc(Cl)c(C(=O)Nc2ccc(C)cc2)n1	inconclusive: 14.1 µM [inhibitor, partial curve, poor fit]
CC(=O)Nc1ccc(C(=O)CCl)cc1	inconclusive: 28.2 µM [inhibitor, single point]
O=C(CSC1=NCCS1)N1CCN(c2ccccc2)CC1	inactive
CC(C)(C)n1ncc2c(=O)n(CC(=O)NCc3ccccc3)cnc21	active: 20 µM
Cc1ccccc1NC(=O)C1CCCN(S(=O)(=O)c2ccc3c(c2)C(C)(C)C(=O)N3C)C1 (stereo not given)	inconclusive: 14.1 µM [inhibitor, partial curve, poor fit]
CCOc1cc(/C=N/Nc2cc(C)nc(-n3nc(C)cc3C)n2)ccc1O	inactive

Structure (SMILES)	Potency
O=C(NCc1cc(C(F)(F)F)cc(C(F)(F)F)c1)C1CC(c2ccccc2[N+](=O)[O-])=NO1 (stereo not given)	inconclusive: 12.6 µM [inhibitor, partial curve, poor fit]
Cc1cc(-c2nc3cc(F)ccc3s2)ccc1N	active: 12.6 µM
Cc1ccc(CNC(=O)C(NS(=O)(=O)c2ccc3nc(C)sc3c2)C(C)C)cc1 (stereo not given)	inconclusive: 22.4 µM [inhibitor, single point]
Cc1cc(OCc2nc(-c3ccncc3)no2)cc(C)c1Cl	inactive
COc1cc(/C=C(\C#N)c2nc3ccccc3[nH]2)cc(Cl)c1OCc1ccccc1Cl	inactive
COc1ccc(/C=C/C(=O)c2c(O)n(CCC3=CCCCC3)c(=O)[nH]c2=O)cc1	inconclusive: 35.5 µM [inhibitor, partial curve, poor fit]
COc1ccccc1C1c2[nH]c3ccccc3c2CCN1Cc1cnc(C)s1 (stereo not given)	inconclusive: 11.2 µM [inhibitor, partial curve, poor fit]
Cc1cc2nc3ccc(N(C)C)cc3nc2cc1N	inconclusive: 39.8 µM [inhibitor, single point]
CCc1cccc2c(C(=O)CCl)c[nH]c12	inconclusive: 28.2 µM [inhibitor, partial curve, poor fit]
CCC(C)NC(=O)CSc1c2c(nc3ccccc13)CCCC2 (stereo not given)	inconclusive: 25.1 µM [inhibitor, partial curve, poor fit]
O=c1c2ccccc2ncn1CCCSc1ccccc1	inconclusive: 39.8 µM [inhibitor, single point]
Cc1ccc(-c2nc(N/N=C/c3ccncc3)c3ccccc3n2)cc1	inconclusive: 1 µM [inhibitor, full curve, poor fit]
CC1(C)N=C(SCC(=O)Nc2ccccc2)C(c2ccc(Cl)cc2)=N1	inconclusive: 17.8 µM [inhibitor, partial curve, poor fit]
Cc1ccc(OCC(=O)NC(=S)Nc2ccccn2)c(Br)c1	inconclusive: 15.8 µM [inhibitor, partial curve, poor fit]
COc1ccc(Cl)cc1NC(=S)N(Cc1ccccc1C)CC1CCC(C(=O)O)CC1 (stereo not given)	inconclusive: 5.62 µM [inhibitor, partial curve, poor fit]
Cc1ccc(S(=O)(=O)N2CCCCC2)cc1NC(=O)Cn1ncc(Cl)c(Cl)c1=O	inconclusive: 20 µM [inhibitor, partial curve, poor fit]
COc1ccc(C2C(C#N)=C(N)OC3=C2C(=O)CCC3)cc1Cn1nc(C)c([N+](=O)[O-])c1C (stereo not given)	inconclusive: 15.8 µM [inhibitor, partial curve, poor fit]
COc1ccc(NC(=S)N2CCCN(Cc3cccc(Cl)c3)C2)cc1	inconclusive: 2.51 µM [inhibitor, full curve]
CC1CCc2[nH]c3ccc(C(=O)NCC4CCCO4)cc3c2C1 (stereo not given)	inconclusive: 31.6 µM [inhibitor, partial curve, poor fit]
Cc1ccc(CN2CCc3nc(N4CCN(c5ccccc5F)CC4)ncc3C2)s1	inactive

Pulled one by one from the entries so far (2):
Structure (SMILES)	Potency
COc1ccc(/C=C/C(=O)c2c(O)n(CCC3=CCCCC3)c(=O)[nH]c2=O)cc1	inconclusive: 35.5 µM [inhibitor, partial curve, poor fit]
CC1CCc2[nH]c3ccc(C(=O)NCC4CCCO4)cc3c2C1 (stereo not given)	inconclusive: 31.6 µM [inhibitor, partial curve, poor fit]

Next compounds.

Structure (SMILES)	Potency
O=C(O)CCn1cc(/C=C/C(=O)c2ccc(Cl)cc2)c(-c2cccc(Br)c2)n1	inconclusive: 25.1 µM [inhibitor, partial curve, poor fit]
Cc1ccccc1-c1cnc2c(c1)C(=O)N([C@@H](C)CO)C[C@@H](C)[C@H](CN(C)Cc1ccccc1F)O2	inactive
FC(F)(F)c1ccc2c(c1)N(CCCN1CCN(CCCl)CC1)c1ccccc1S2	inconclusive: 11.2 µM [inhibitor, partial curve, poor fit]
Cc1cccc(NC(=O)CS(=O)(=O)c2cn(CC(=O)N3CCOCC3)c3ccccc23)c1	inconclusive: 3.16 µM [inhibitor, full curve]
COc1ccc(OC)c(NC(=O)c2ccc3c(=O)n(CCc4ccccc4)c(=S)[nH]c3c2)c1	inconclusive: 0.794 µM [inhibitor, full curve, poor fit]
COC(=O)c1ccc(NC(=O)CN(C)S(=O)(=O)c2ccc3c(c2)CCCC(=O)N3)cc1	inconclusive: 31.6 µM [inhibitor, single point]
O=C(Nc1nsc(-c2ccccc2)n1)c1cccs1	inconclusive: 20 µM [inhibitor, single point]
COc1ccc(-c2ccc(/C=C3/C(=N)N4C(C)=CSC4=NC3=O)o2)c([N+](=O)[O-])c1	inconclusive: 39.8 µM [inhibitor, single point]
C=CCOc1ccccc1C(=O)/C=C1/C(=O)Nc2ccccc21	inconclusive: 39.8 µM [inhibitor, partial curve, poor fit]
CCOC(=O)c1cccc(Nc2nc(-c3cccnc3)nc3ccccc23)c1	inconclusive: 28.2 µM [inhibitor, partial curve, poor fit]
CN1/C(=C\C(=O)C[n+]2ccc(C(=O)c3ccccc3)cc2)C(C)(C)c2ccccc21	inconclusive: 20 µM [inhibitor, single point]
COC(=O)C1=C(C(=O)OC)SC2(S1)C(C(=O)OC)=C(C(=O)OC)Sc1c2ssc1=O	inconclusive: 31.6 µM [inhibitor, partial curve, poor fit]
COC(=O)c1cc(=O)nc2scc(C)n12	inconclusive: 17.8 µM [inhibitor, single point]
O=C(NCCc1ccccc1)C1CCN(Cc2cccc3ccccc23)CC1	inconclusive: 10 µM [inhibitor, partial curve, poor fit]
COc1ccc(Nc2cc(C)c3cc(NC(=O)COc4cccc(C)c4)ccc3n2)cc1	inconclusive: 35.5 µM [inhibitor, partial curve, poor fit]
O=C(Nc1ccc(NC(=O)c2cccs2)cn1)c1ccco1	inconclusive: 28.2 µM [inhibitor, single point]
Cc1ccc(C(=O)O/N=C(\N)c2ccccn2)c(Cl)c1	inconclusive: 10 µM [inhibitor, partial curve, poor fit]
C=C1CC2(OC1=O)c1ccccc1CCc1ccccc12	inconclusive: 22.4 µM [inhibitor, partial curve, poor fit]
Cc1noc(C)c1CSc1nnc(-c2cc(Cl)ccc2Cl)n1N	inactive
Cc1cccc(C(=O)O/N=C(\N)Cc2cccc3ccccc23)c1	inactive

3 entries out of the list, ordered by count of non-hydrogen atoms, falling:
Structure (SMILES)	Potency
COc1ccc(OC)c(NC(=O)c2ccc3c(=O)n(CCc4ccccc4)c(=S)[nH]c3c2)c1	inconclusive: 0.794 µM [inhibitor, full curve, poor fit]
COC(=O)c1ccc(NC(=O)CN(C)S(=O)(=O)c2ccc3c(c2)CCCC(=O)N3)cc1	inconclusive: 31.6 µM [inhibitor, single point]
Cc1noc(C)c1CSc1nnc(-c2cc(Cl)ccc2Cl)n1N	inactive
